Publication PMC7033568
No constants are given. Whether binding was seen depends on the method and setting. In cells and extracts the contact can be indirect. Binding can be weak; no strength is given. Where a sequence is shown, tags or fusion partners need not be part of it.

Target: cSH2 domain of PIK3R1
Experiment: pull-down; GST pull-down; which partner was the GST fusion and the conditions are not stated

binding: binds
B1: LRRC4 (as used in the GST pull-down) (protein, UniProt Q9HBW1 39-653)
chain: ASAGPQNCPSVCSCSNQFSKVVCTRRGLSEVPQGIPSNTRYLNLMENNIQMIQADTFRHLHHLEVLQLGRNSIRQIEVGAFNGLASLNTLELFDNWLTVIPSGAFEYLSKLRELWLRNNPIESIPSYAFNRVPSLMRLDLGELKKLEYISEGAFEGLFNLKYLNLGMCNIKDMPNLTPLVGLEELEMSGNHFPEIRPGSFHGLSSLKKLWVMNSQVSLIERNAFDGLASLVELNLAHNNLSSLPHDLFTPLRYLVELHLHHNPWNCDCDILWLAWWLREYIPTNSTCCGRCHAPMHMRGRYLVEVDQASFQCSAPFIMDAPRDLNISEGRMAELKCRTPPMSSVKWLLPNGTVLSHASRHPRISVLNDGTLNFSHVLLSDTGVYTCMVTNVAGNSNASAYLNVSTAELNTSNYSFFTTVTVETTEISPEDTTRKYKPVPTTSTGYQPAYTTSTTVLIQTTRVPKQVAVPATDTTDKMQTSLDEVMKTTKIIIGCFVAVTLLAAAMLIVFYKLRKRHQQRSTVTAARTVEIIQVDEDIPAATSAAATAAPSGVSGEGAVVLPTIHDHINYNTYKPAHGAHWTENSLGNSLHPTVTTISEPYIIQTHTKDKVQETQI
